Data as given in US9579330B2, “Use and application regimen of a pharmaceutical composition containing levonorgestrel and a COX inhibitor for on-demand contraception” (priority 2012, dated 2017).
Like-named read-outs stand apart in the source and are kept apart here.

Test system: PEG2 synthesis in plasma

With `COc1ccc2cc([C@H](C)C(=O)O)ccc2c1` [Naproxen, naproxen] as the compound, how does the “PEG2 synthesis in plasma (in words)” value (administration of naproxen) read?
Its value is “strongly inhibits”.

What about the “Prostaglandin E2 in the plasma, average value” (“Prostaglandin E2 in the plasma” below) (sample at 18:00, 2 hours after oral 20 mg/kg naproxen (around 16:00)) of the same compound?
The value was 21.5 pg/500 μg tissue.

And the “Prostaglandin E2 in the plasma” value (sample at 20:00, 4 hours after oral 20 mg/kg naproxen (around 16:00))?
The value was 23.3 pg/500 μg tissue.

What about the “Prostaglandin E2 in the plasma” value (sample at 22:00, 6 hours after oral 20 mg/kg naproxen (around 16:00)) of the same compound?
The value was 20.5 pg/500 μg tissue.
